Experimental data published in the supplement of paper PMC4604168 (melanoma cell lines).
This is one part of the list. Many values rest on one well or one pass, so single values are uncertain.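 Cells were imaged in 1,536-well plates, and nuclei stained with an antibody against cleaved PARP were counted against all DNA-stained nuclei to give the apoptosis fraction. Screening doses were chosen to leave most cells alive, and resting and induced cleaved-PARP levels differ strongly between cell lines.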

Columns and labels:
Assay in all cases: cleaved PARP positive nuclei fraction relative to DMSO control; melanoma cells; higher = more apoptosis
Settings in all cases: library dose: low library concentration; 72 h
501Mel = test system: 501Mel
A101D = test system: A101D
A2058 = test system: A2058
C32 = test system: C32
CBRC008 = test system: CBRC008 (line from a melanoma biopsy)
CBRC014 = test system: CBRC014 (line from a melanoma biopsy)
CBRC016 = test system: CBRC016 (line from a melanoma biopsy)
CBRC017 = test system: CBRC017 (line from a melanoma biopsy)
COLO792 = test system: COLO792
COLO800 = test system: COLO800
COLO829 = test system: COLO829
G361 = test system: G361
IPC-298 = test system: IPC-298
IST-MEL1 = test system: IST-MEL1
LB2518-MEL = test system: LB2518-MEL
LOXIMVI = test system: LOXIMVI

| Compound | cleaved PARP positive nuclei fraction (501Mel) | cleaved PARP positive nuclei fraction (A101D) | cleaved PARP positive nuclei fraction (A2058) | cleaved PARP positive nuclei fraction (C32) | cleaved PARP positive nuclei fraction (CBRC008) | cleaved PARP positive nuclei fraction (CBRC014) | cleaved PARP positive nuclei fraction (CBRC016) | cleaved PARP positive nuclei fraction (CBRC017) | cleaved PARP positive nuclei fraction (COLO792) | cleaved PARP positive nuclei fraction (COLO800) | cleaved PARP positive nuclei fraction (COLO829) | cleaved PARP positive nuclei fraction (G361) | cleaved PARP positive nuclei fraction (IPC-298) | cleaved PARP positive nuclei fraction (IST-MEL1) | cleaved PARP positive nuclei fraction (LB2518-MEL) | cleaved PARP positive nuclei fraction (LOXIMVI) |
| --- | --- | --- | --- | --- | --- | --- | --- | --- | --- | --- | --- | --- | --- | --- | --- | --- |
| CC(C)C[C@H](NC(=O)[C@H](Cc1ccccc1)NC(=O)c1cnccn1)B(O)O [Bortezomib] + COc1cc(N2CCC(N3CCN(C)CC3)CC2)ccc1Nc1ncc(Cl)c(Nc2ccccc2S(=O)(=O)C(C)C)n1 [NVP-TAE684] (first compound 0.001 µM, partner dose 0.08 µM) | 766% | 166% | 206% | 199% | 1050% | 364% | 190% | 185% | 227% | 138% | 110% | 273% | 77.5% | 698% | 147% | 66.5% |
| O=C(O)[C@@H]1[O][Sb](=[O])([O][Sb]2(=[O])[O][C@H]([C@H](O)CO)[C@H](O)[C@H](C(=O)O)[O]2)[O][C@H]([C@H](O)CO)[C@@H]1O (stereo partly drawn) [stibogluconate] + Oc1cc(-c2nc(-c3ccccc3)[nH]c2-c2ccncc2)ccc1Cl [L779450] (first compound 2 µM, partner dose 0.2 µM) | 92.2% | 30.5% | 161% | 202% | 63.6% | 108% | 28.8% | 92.5% | 55.6% | 39.6% | 116% | 111% | 50.4% | 211% | 168% | 82% |
| Nc1ncn([C@H]2C[C@H](O)[C@@H](CO)O2)c(=O)n1 [decitabine] + O=S(=O)(c1ccccc1)N(CC(F)(F)F)c1ccc(C(O)(C(F)(F)F)C(F)(F)F)cc1 [T0901317] (first compound 0.1 µM, partner dose 1.4 µM) | 67.6% | 54.4% | 54.4% | 75.9% | 60.7% | 101% | 125% | 111% | 77.6% | 113% | 91.3% | 78.6% | 307% | 111% | 145% | 166% |
| CC(C)C[C@H](NC(=O)[C@H](Cc1ccccc1)NC(=O)c1cnccn1)B(O)O [Bortezomib] + O=S(=O)(c1ccccc1)N(CC(F)(F)F)c1ccc(C(O)(C(F)(F)F)C(F)(F)F)cc1 [T0901317] (first compound 0.001 µM, partner dose 1.4 µM) | 151% | 244% | 159% | 82.1% | 2350% | 290% | 455% | 350% | 74.1% | 186% | 214% | 1370% | 160% | 170% | 619% | 378% |
| O=C(O)c1ccc2c(c1)nc(Nc1cccc(Cl)c1)c1ccncc12 + O=C1NC(=O)/C(=C/c2ccc(-c3ccc(F)cc3O)o2)S1 [AS252424] (first compound 0.4 µM, partner dose 1 µM) | 69% | 18.4% | 140% | 49.7% | 278% | 121% | 990% | 141% | 140% | 29.5% | 204% | 120% | 50.1% | 340% | 79.3% | 196% |
| CN1CCN(c2ccc3nc(-c4c(N)c5c(F)cccc5[nH]c4=O)[nH]c3c2)CC1 [Dovitinib] + O=C(O)C(=O)Nc1sc2c(c1C(=O)O)CCNC2 [TCS401] (first compound 0.1 µM, partner dose 1.66667 µM) | 143% | 20.4% | 52.4% | 55.1% | 106% | 92.6% | 23.9% | 74% | 85.4% | 145% | 156% | 189% | 99.3% | 69.2% | 39.3% | 73.4% |
| Nc1nc(F)nc2c1ncn2[C@@H]1O[C@H](CO)[C@@H](O)[C@@H]1O [fludarabine] + Oc1cc(-c2nc(-c3ccccc3)[nH]c2-c2ccncc2)ccc1Cl [L779450] (first compound 0.2 µM, partner dose 0.2 µM) | 486% | 30.3% | 73.1% | 53.6% | 74% | 128% | 113% | 90.1% | 148% | 43.1% | 63.9% | 52.1% | 169% | 93% | 432% | 220% |
| CO[C@H]1C[C@@H]2CC[C@@H](C)[C@@](O)(O2)C(=O)C(=O)N2CCCC[C@H]2C(=O)O[C@H]([C@H](C)C[C@@H]2CC[C@@H](OCCO)[C@H](OC)C2)CC(=O)[C@H](C)/C=C(\C)[C@@H](O)[C@@H](OC)C(=O)[C@H](C)C[C@H](C)/C=C/C=C/C=C/1C [everolimus] + Cn1cc(/C=C2\C(=O)Nc3cccnc32)c2ccccc21 [GW441756] (first compound 0.02 µM, partner dose 0.4 µM) | 108% | 71.7% | 224% | 42.9% | 279% | 113% | 48% | 122% | 165% | 79.4% | 117% | 215% | 571% | 89.8% | 169% | 86% |
| CN1CCN(c2ccc3nc(-c4c(N)c5c(F)cccc5[nH]c4=O)[nH]c3c2)CC1 [Dovitinib] + Cn1cc(/C=C2\C(=O)Nc3cccnc32)c2ccccc21 [GW441756] (first compound 0.1 µM, partner dose 0.4 µM) | 76.8% | 22.6% | 148% | 115% | 295% | 112% | 88.9% | 88.6% | 139% | 179% | 53.4% | 170% | 92.3% | 85.9% | 73.5% | 65.7% |
| O=C(O)c1ccc2c(c1)nc(Nc1cccc(Cl)c1)c1ccncc12 + CCc1ccc(CCOc2ccc(CC3SC(=O)NC3=O)cc2)nc1 [pioglitazone] (first compound 0.4 µM, partner dose 2 µM) | 112% | 8.49% | 55.7% | 141% | 75.2% | 164% | 199% | 258% | 191% | 196% | 178% | 89% | 44.8% | 96.6% | 62.4% | 135% |
| Cn1c(=O)n(-c2ccc(C(C)(C)C#N)cc2)c2c3cc(-c4cnc5ccccc5c4)ccc3ncc21 + COc1ccc(COc2ccc(Cc3cnc(N)nc3N)cc2OC)cc1 [GW2580] (first compound 0.004 µM, partner dose 1 µM) | 67.1% | 39.2% | 73% | 106% | 65.5% | 114% | 24.6% | 73.4% | 89% | 51.9% | 18.4% | 145% | 120% | 80.8% | 119% | 153% |
| Nc1nc(F)nc2c1ncn2[C@@H]1O[C@H](CO)[C@@H](O)[C@@H]1O [fludarabine] + COC(=O)c1sccc1S(=O)(=O)Nc1ccc(Nc2ccccc2)cc1OC [GSK0660] (first compound 0.2 µM, partner dose 1 µM) | 545% | 54.1% | 57% | 83.1% | 82.8% | 92% | 92.7% | 75.2% | 112% | 64.1% | 114% | 166% | 135% | 34.6% | 66.2% | 138% |
| CS(=O)(=O)CCNCc1ccc(-c2ccc3ncnc(Nc4ccc(OCc5cccc(F)c5)c(Cl)c4)c3c2)o1 [lapatinib] + O=C(O)C(=O)Nc1sc2c(c1C(=O)O)CCNC2 [TCS401] (first compound 0.8 µM, partner dose 1.66667 µM) | 89.1% | 21.9% | 67.7% | 112% | 226% | 97% | 75.1% | 105% | 117% | 36.3% | 88.8% | 42.2% | 69.8% | 43.2% | 43% | 25.1% |
| CCCS(=O)(=O)Nc1ccc(F)c(C(=O)c2c[nH]c3ncc(Cl)cc23)c1F + COc1cc(N2CCC(N3CCN(C)CC3)CC2)ccc1Nc1ncc(Cl)c(Nc2ccccc2S(=O)(=O)C(C)C)n1 [NVP-TAE684] (first compound 0.08 µM, partner dose 0.08 µM) | 117% | 15.6% | 145% | 128% | 32.1% | 116% | 63.3% | 88.2% | 58.2% | 133% | 114% | 121% | 50.7% | 80.2% | 61.5% | 737% |
| C=C(c1ccc(C(=O)O)cc1)c1cc2c(cc1C)C(C)(C)CCC2(C)C [Bexarotene] + O=C1NC(=O)/C(=C/c2ccc(-c3ccc(F)cc3O)o2)S1 [AS252424] (first compound 2 µM, partner dose 1 µM) | 65.4% | 21.3% | 49.8% | 264% | 274% | 117% | 151% | 177% | 129% | 66% | 151% | 88.1% | 98.5% | 85.1% | 206% | 67.3% |
| Nc1ccn([C@@H]2O[C@H](CO)[C@@H](O)C2(F)F)c(=O)n1 [gemcitabine] + COc1cc2ncnc(Nc3ccc(Oc4ccccc4)cc3)c2cc1OC [SrcI1] (first compound 0.0004 µM, partner dose 2 µM) | 38.2% | 11.9% | 76.2% | 65.7% | 183% | 123% | 162% | 113% | 144% | 180% | 70.9% | 93.2% | 100% | 316% | 62.8% | 188% |
| CS(=O)(=O)CCNCc1ccc(-c2ccc3ncnc(Nc4ccc(OCc5cccc(F)c5)c(Cl)c4)c3c2)o1 [lapatinib] + O=C(Nc1ccccc1)c1cc([N+](=O)[O-])ccc1Cl [GW9662] (first compound 0.8 µM, partner dose 2 µM) | 77.1% | 15% | 141% | 125% | 58.3% | 87% | 117% | 91.1% | 53% | 111% | 114% | 89% | 134% | 168% | 43.3% | 59% |
| CO[C@H]1C[C@@H]2CC[C@@H](C)[C@@](O)(O2)C(=O)C(=O)N2CCCC[C@H]2C(=O)O[C@H]([C@H](C)C[C@@H]2CC[C@@H](OCCO)[C@H](OC)C2)CC(=O)[C@H](C)/C=C(\C)[C@@H](O)[C@@H](OC)C(=O)[C@H](C)C[C@H](C)/C=C/C=C/C=C/1C [everolimus] + O=C(O)C(=O)Nc1sc2c(c1C(=O)O)CCNC2 [TCS401] (first compound 0.02 µM, partner dose 1.66667 µM) | 183% | 22.9% | 246% | 171% | 110% | 80.2% | 78.8% | 139% | 122% | 224% | 232% | 115% | 96.3% | 99.1% | 59.7% | 150% |

Some entries already given with just cleaved PARP positive nuclei fraction (G361) and cleaved PARP positive nuclei fraction (COLO800):
Compound	cleaved PARP positive nuclei fraction (G361)	cleaved PARP positive nuclei fraction (COLO800)
Cn1c(=O)n(-c2ccc(C(C)(C)C#N)cc2)c2c3cc(-c4cnc5ccccc5c4)ccc3ncc21 + COc1ccc(COc2ccc(Cc3cnc(N)nc3N)cc2OC)cc1 [GW2580] (first compound 0.004 µM, partner dose 1 µM)	145%	51.9%
Nc1nc(F)nc2c1ncn2[C@@H]1O[C@H](CO)[C@@H](O)[C@@H]1O [fludarabine] + COC(=O)c1sccc1S(=O)(=O)Nc1ccc(Nc2ccccc2)cc1OC [GSK0660] (first compound 0.2 µM, partner dose 1 µM)	166%	64.1%
